# From patent US20030078191A1
# By UniProt entry, the sequences of proteins in these tests, tags left out. Where a name states a change or a piece, a line headed by the entry shows the natural chain unless it says otherwise.
# UniProt P04386: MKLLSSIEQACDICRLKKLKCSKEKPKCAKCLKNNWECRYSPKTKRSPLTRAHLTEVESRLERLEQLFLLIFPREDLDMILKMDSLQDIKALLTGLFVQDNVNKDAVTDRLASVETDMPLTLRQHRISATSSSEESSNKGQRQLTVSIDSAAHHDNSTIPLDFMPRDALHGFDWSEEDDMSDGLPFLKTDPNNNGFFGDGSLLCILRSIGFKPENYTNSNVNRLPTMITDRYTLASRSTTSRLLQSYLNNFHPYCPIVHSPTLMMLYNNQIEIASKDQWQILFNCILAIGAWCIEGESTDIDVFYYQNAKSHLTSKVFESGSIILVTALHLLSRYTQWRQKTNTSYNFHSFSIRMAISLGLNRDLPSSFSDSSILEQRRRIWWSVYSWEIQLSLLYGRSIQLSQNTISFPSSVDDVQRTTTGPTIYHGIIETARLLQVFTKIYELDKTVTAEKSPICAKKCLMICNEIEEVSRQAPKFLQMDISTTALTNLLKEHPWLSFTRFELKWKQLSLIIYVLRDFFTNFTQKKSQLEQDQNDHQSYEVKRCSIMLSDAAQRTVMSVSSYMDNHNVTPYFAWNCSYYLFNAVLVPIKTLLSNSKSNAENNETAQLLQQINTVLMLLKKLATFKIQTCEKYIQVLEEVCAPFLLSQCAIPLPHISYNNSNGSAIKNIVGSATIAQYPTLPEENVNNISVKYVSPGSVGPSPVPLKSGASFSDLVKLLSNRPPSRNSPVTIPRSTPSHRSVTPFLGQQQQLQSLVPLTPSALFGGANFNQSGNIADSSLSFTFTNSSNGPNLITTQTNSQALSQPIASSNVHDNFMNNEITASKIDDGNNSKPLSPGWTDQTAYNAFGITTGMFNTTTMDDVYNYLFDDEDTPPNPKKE
# No constants are given. Whether binding was seen depends on the method and setting. Some binding calls cover weakened binding; strength is not graded here.
# Assays:
# [1] = target: Gal4ad-ZipA fusion (pGAD424-ZipA(23-328), SHp104) (Escherichia coli) (UniProt P77173); test: yeast two-hybrid, Gal4 system, growth on selective plate
# [2] = target: Gal4ad-ZipA fusion (pGAD424-ZipA(23-328), SHp104) (Escherichia coli) (UniProt P77173); test: yeast two-hybrid, Gal4 system
substance,measurement,setting,value
Gal4bd-OrfE fusion (pAS2-1 fusion of kil) (from UniProt P04386 1-147; P38393 1-73),binding,[1],binds
same,binding,[2],binds
